Patent US12485179B2, “Cholecystokinin B receptor targeting for imaging and therapy” (Purdue Research Foundation, priority 2012, dated 2025)
For at least one compound, name, drawing or mass did not settle the structure.

Experiments:
CCK2R = molecular target: T1, CCK2R (Homo sapiens, UniProt P32239); assay: Binding of 99mTc conjugates to HEK-293 CCK2R cells (cell bound radioactivity); parameters: expressed in transfected cells; host or cells: HEK-293, G418-selected, from Dr. Mark Hellmich (University of Texas at Galveston); settings: 1 h at 37° C., 99mTc chelated
T1 sequence (P32239 1-447): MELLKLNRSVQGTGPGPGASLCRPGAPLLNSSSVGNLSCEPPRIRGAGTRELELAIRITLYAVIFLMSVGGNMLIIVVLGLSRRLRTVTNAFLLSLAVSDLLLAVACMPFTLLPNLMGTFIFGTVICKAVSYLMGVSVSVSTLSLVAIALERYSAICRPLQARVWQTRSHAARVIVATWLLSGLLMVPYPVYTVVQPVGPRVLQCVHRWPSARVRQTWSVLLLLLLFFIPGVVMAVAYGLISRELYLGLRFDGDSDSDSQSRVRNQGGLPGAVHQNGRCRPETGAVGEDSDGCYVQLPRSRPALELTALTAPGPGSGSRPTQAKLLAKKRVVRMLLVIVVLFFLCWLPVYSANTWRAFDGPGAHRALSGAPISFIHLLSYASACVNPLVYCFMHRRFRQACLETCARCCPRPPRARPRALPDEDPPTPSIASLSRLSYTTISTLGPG
Method: (§1) CRL-1, CRL-2, CRL-3 and CRL-4 were chelated to ^99mTc and tested for binding using two transfected cell lines of HEK-CCK2R (HEK-293 CCK2R) and HEK-CCK2R splice cell line (HEK CCK2i4svR), obtained from Dr. Mark Hellmich (University of Texas at Galveston). Cells were cultured in Dulbecco's modified Eagles (Gibco) supplemented with 10% Fetal Bovine Serum and G418 disulfate (SIGMA; 400 μg/ml), 1% penicillin/streptomycin at 37° C. in a humidified 95% air, 5% CO2 atmosphere.
(§2) Competition studies were performed using 100 fold excess of free Z-360 containing corresponding peptide linker and no chelating moiety. HEK 293 CCK2R and HEK CCK2i4svR were seeded onto 24 well plates and allowed to become confluent over 48-72 hours. Spent medium in each well was replaced with 0.5 ml fresh media containing 0.5% BSA and increasing concentrations of the test article. After incubating for 1 h at 37° C. cells were rinsed with incubation solution (2×1.0 ml) to remove any unbound radioactivity. Cells were then resuspended on 0.5 ml 0.25N NaOH and cell radioactivity was counted using a γ-counter. The dissociation constant (KD) was calculated using a plot of cell bound radioactivity versus the concentration of the radiotracer using Graphpad Prism 4 and assuming a non-cooperative single site binding equilibrium.

CCK2i4svR = molecular target: T2, CCK2i4svR (Homo sapiens, UniProt P32239); assay: Binding of 99mTc conjugates to HEK CCK2i4svR cells (cell bound radioactivity); settings: 1 h at 37° C., 99mTc chelated; read-out: Kd (nM) HEK-293-CCKRi4svR Cells
T2 construct: expressed in transfected cells; host or cells: HEK-293, G418-selected, from Dr. Mark Hellmich (University of Texas at Galveston)
T2 sequence (P32239 1-516 isoform P32239-2): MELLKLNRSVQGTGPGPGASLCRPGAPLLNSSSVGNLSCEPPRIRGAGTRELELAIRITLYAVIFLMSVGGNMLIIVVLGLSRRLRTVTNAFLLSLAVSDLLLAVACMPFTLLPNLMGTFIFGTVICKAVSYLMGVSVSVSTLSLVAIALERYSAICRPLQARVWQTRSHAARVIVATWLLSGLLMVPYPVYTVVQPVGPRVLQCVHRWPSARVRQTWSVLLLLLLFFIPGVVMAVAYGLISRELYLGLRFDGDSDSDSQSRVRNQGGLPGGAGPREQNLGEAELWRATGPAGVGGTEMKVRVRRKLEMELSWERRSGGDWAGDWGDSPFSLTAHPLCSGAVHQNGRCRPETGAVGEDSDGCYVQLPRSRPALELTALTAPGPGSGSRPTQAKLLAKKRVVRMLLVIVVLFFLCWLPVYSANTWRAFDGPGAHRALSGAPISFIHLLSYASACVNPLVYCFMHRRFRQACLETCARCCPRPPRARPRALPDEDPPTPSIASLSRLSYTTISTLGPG
Method: as §1, §2

`CC(C)(C)C(=O)CN1C(=O)[C@H](NC(=O)Nc2cccc(C(=O)N[C@@H](CCC(=O)O)C(=O)N[C@@H](CCC(=O)NC[C@H](O)[C@@H](O)[C@H](O)[C@H](O)CO)C(=O)N[C@@H](CCC(=O)O)C(=O)N[C@@H](CCC(=O)NC[C@H](O)[C@@H](O)[C@H](O)[C@H](O)CO)C(=O)NC[C@H](N)C(=O)N[C@@H](CC(=O)O)C(=O)N[C@@H](CS)C(=O)O)c2)CN(C2CCCCC2)c2ccccc21` [CRL-2 ^99mTc, metal not drawn] showed a Kd (CCK2R) of 46 nM and a Kd (CCK2i4svR) of 31 nM.
For `CC(C)(C)C(=O)CN1C(=O)[C@H](NC(=O)Nc2cccc(C(=O)N[C@@H](CCC(=O)O)C(=O)N[C@@H](CCCNC(=N)N)C(=O)N[C@@H](CC(=O)O)C(=O)NC[C@H](N)C(=O)N[C@@H](CC(=O)O)C(=O)N[C@@H](CS)C(=O)O)c2)CN(C2CCCCC2)c2ccccc21` [CRL-1 ^99mTc, metal not drawn], the Kd (CCK2R) was 16 nM.
